The text below walks through data of the supplement of paper PMC4604168 (melanoma cell lines).

The list shows a part of the results. Single values are uncertain, as repeats are few or missing.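 Imaging used 1,536-well plates; nuclei positive for cleaved PARP by antibody were divided by total DNA-stained nuclei to yield the apoptosis fraction. Doses for screening kept most cells viable, and cell lines differ markedly in resting and induced cleaved-PARP levels.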

In the assay the test system is 501Mel. The assay can be described thus: cleaved PARP positive nuclei fraction relative to DMSO control; melanoma cells; higher = more apoptosis. The settings on record: library dose: low library concentration; 72 h.
`Cn1sc(=O)n(Cc2ccccc2)c1=O` + COc1cc2ncnc(Nc3ccc(Oc4ccccc4)cc3)c2cc1OC [SrcI1] (first compound 0.4 µM, partner dose 2 µM): the “cleaved PARP positive nuclei fraction” value turned out to be 238%.

In the case of `Cn1cnc2c(F)c(Nc3ccc(Br)cc3Cl)c(C(=O)NOCCO)cc21` [selumetinib] + Oc1nc(-c2ccc(C(F)(F)F)cc2)nc2c1CSCC2 [XAV939] (first compound 0.015 µM, partner dose 2 µM), the “cleaved PARP positive nuclei fraction” value was 116%.

With `NC1(c2ccc(-c3nc4ccn5c(=O)[nH]nc5c4cc3-c3ccccc3)cc2)CCC1` + COc1cc2ncnc(Nc3ccc(Oc4ccccc4)cc3)c2cc1OC [SrcI1] (first compound 0.4 µM, partner dose 2 µM), the “cleaved PARP positive nuclei fraction” value amounted to 77.1%.

`Cn1sc(=O)n(Cc2ccccc2)c1=O` + Cn1cc(/C=C2\C(=O)Nc3cccnc32)c2ccccc21 [GW441756] (first compound 0.4 µM, partner dose 0.4 µM): the “cleaved PARP positive nuclei fraction” value turned out to be 98.6%.

Turning to `C[C@@H](N)c1ccc(C(=O)Nc2ccnc3[nH]ccc23)cc1` + COc1cc2ncnc(Nc3ccc(Oc4ccccc4)cc3)c2cc1OC [SrcI1] (first compound 0.4 µM, partner dose 2 µM), the “cleaved PARP positive nuclei fraction” value is 58%.

For `CCCCCCCCc1ccc(CCC(N)(CO)CO)cc1` [fingolimod] + Oc1cc(-c2nc(-c3ccccc3)[nH]c2-c2ccncc2)ccc1Cl [L779450] (first compound 2 µM, partner dose 0.2 µM), the “cleaved PARP positive nuclei fraction” value was 106%.

`C[C@@H](N)c1ccc(C(=O)Nc2ccnc3[nH]ccc23)cc1` + O=S(=O)(c1ccccc1)N(CC(F)(F)F)c1ccc(C(O)(C(F)(F)F)C(F)(F)F)cc1 [T0901317] (first compound 0.4 µM, partner dose 1.4 µM): the “cleaved PARP positive nuclei fraction” value amounted to 172%.

As for `CN(c1ncccc1CNc1nc(Nc2ccc3c(c2)CC(=O)N3)ncc1C(F)(F)F)S(C)(=O)=O` + O=c1cc(-c2cccc3c2Sc2ccccc2S3)oc(N2CCOCC2)c1 [KU55933] (first compound 0.08 µM, partner dose 1 µM), the “cleaved PARP positive nuclei fraction” value was determined as 65.6%.

As for `C[C@]1(O)C[C@@H](c2nc(-c3ccc4ccc(-c5ccccc5)nc4c3)c3c(N)nccn32)C1` + CCc1ccc(CCOc2ccc(CC3SC(=O)NC3=O)cc2)nc1 [pioglitazone] (first compound 0.4 µM, partner dose 2 µM), the “cleaved PARP positive nuclei fraction” value stood at 235%.

With `C[C@]1(O)C[C@@H](c2nc(-c3ccc4ccc(-c5ccccc5)nc4c3)c3c(N)nccn32)C1` + COc1ccc2c(c1)CCC1C2CCC2(C)C(NCCCCCCN3C(=O)C=CC3=O)CCC12 [U73122] (first compound 0.4 µM, partner dose 0.4 µM), the “cleaved PARP positive nuclei fraction” value came out at 81.1%.

Regarding `C[C@]1(O)C[C@@H](c2nc(-c3ccc4ccc(-c5ccccc5)nc4c3)c3c(N)nccn32)C1` + O=C1NC(=O)/C(=C/c2ccc(-c3ccc(F)cc3O)o2)S1 [AS252424] (first compound 0.4 µM, partner dose 1 µM), the “cleaved PARP positive nuclei fraction” value is 76.3%.

For the compound `C[C@]1(O)C[C@@H](c2nc(-c3ccc4ccc(-c5ccccc5)nc4c3)c3c(N)nccn32)C1` + O=C(Nc1ccccc1)c1cc([N+](=O)[O-])ccc1Cl [GW9662] (first compound 0.4 µM, partner dose 2 µM), the “cleaved PARP positive nuclei fraction” value came out at 39.1%.

In the case of `CCN(CC)CCNC(=O)c1c(C)[nH]c(/C=C2\C(=O)Nc3ccc(F)cc32)c1C` [sunitinib] + O=c1cc(-c2cccc3c2Sc2ccccc2S3)oc(N2CCOCC2)c1 [KU55933] (first compound 0.4 µM, partner dose 1 µM), the “cleaved PARP positive nuclei fraction” value amounted to 99.7%.

As for `Cn1cnc2c(F)c(Nc3ccc(Br)cc3Cl)c(C(=O)NOCCO)cc21` [selumetinib] + O=S(=O)(c1ccccc1)N(CC(F)(F)F)c1ccc(C(O)(C(F)(F)F)C(F)(F)F)cc1 [T0901317] (first compound 0.015 µM, partner dose 1.4 µM), the “cleaved PARP positive nuclei fraction” value was found to be 126%.

In the case of `NC1(c2ccc(-c3nc4ccn5c(=O)[nH]nc5c4cc3-c3ccccc3)cc2)CCC1` + O=C(O)C(=O)Nc1sc2c(c1C(=O)O)CCNC2 [TCS401] (first compound 0.4 µM, partner dose 1.66667 µM), the “cleaved PARP positive nuclei fraction” value was determined as 81.3%.

As to `Cn1cnc2c(F)c(Nc3ccc(Br)cc3Cl)c(C(=O)NOCCO)cc21` [selumetinib] + COc1ccc2c(c1)CCC1C2CCC2(C)C(NCCCCCCN3C(=O)C=CC3=O)CCC12 [U73122] (first compound 0.015 µM, partner dose 0.4 µM), the “cleaved PARP positive nuclei fraction” value came to 124%.

Turning to `Cn1sc(=O)n(Cc2ccccc2)c1=O` + c1cc(-c2cnn3cc(-c4ccc(OCCN5CCCCC5)cc4)cnc23)ccn1 [Dorsomorphin] (first compound 0.4 µM, partner dose 0.4 µM), the “cleaved PARP positive nuclei fraction” value was 69.5%.

With `CC(=O)O[C@@]12CO[C@@H]1C[C@H](O)[C@@]1(C)C(=O)[C@H](O)C3=C(C)[C@@H](OC(=O)[C@H](O)[C@@H](NC(=O)OC(C)(C)C)c4ccccc4)C[C@@](O)([C@@H](OC(=O)c4ccccc4)[C@H]21)C3(C)C` [Docetaxel] + N#Cc1c(O)c2c(-c3ccc(-c4ccccc4O)cc3)csc2[nH]c1=O [A769662] (first compound 0.0001 µM, partner dose 2 µM), the “cleaved PARP positive nuclei fraction” value came to 94.9%.

With `Cn1cnc2c(F)c(Nc3ccc(Br)cc3Cl)c(C(=O)NOCCO)cc21` [selumetinib] + Oc1cc(-c2nc(-c3ccccc3)[nH]c2-c2ccncc2)ccc1Cl [L779450] (first compound 0.015 µM, partner dose 0.2 µM), the “cleaved PARP positive nuclei fraction” value amounted to 95.8%.

For the compound `Cn1sc(=O)n(Cc2ccccc2)c1=O` + CCCCCCCCCCCC1=C(O)C(=O)C=C(O)C1=O [Embelin] (first compound 0.4 µM, partner dose 1.2 µM), the “cleaved PARP positive nuclei fraction” value was 116%.

For `CCN(CC)CCNC(=O)c1c(C)[nH]c(/C=C2\C(=O)Nc3ccc(F)cc32)c1C` [sunitinib] + CCc1ccc(CCOc2ccc(CC3SC(=O)NC3=O)cc2)nc1 [pioglitazone] (first compound 0.4 µM, partner dose 2 µM), the “cleaved PARP positive nuclei fraction” value came to 272%.
